One molecule from PMC7118173 (Nature Communications, 2020) can be followed below.

The test addresses T1, His6-Sumo tagged SepF_(ΔML,K125E/F131A) (Corynebacterium glutamicum) (UniProt Q8NNN6).
T1 sequence: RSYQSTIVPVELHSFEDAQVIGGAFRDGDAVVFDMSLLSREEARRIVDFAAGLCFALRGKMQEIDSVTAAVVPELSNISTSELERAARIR
The experiment in a line: SPR; Biacore T200, 25 °C, 25 mM HEPES pH 8, 150 mM KCl, 0.1 mM EDTA; His6-Sumo SepF variants covalently immobilised on NTA chips (3000-4000 RU); FtsZCTD 1.56 to 400 µM injected; steady-state fit; apparent Kd; both purified. On the technique in general: In SPR one partner is held on a chip, and binding of the other changes the refractive index at the surface.

Results are given in words; binding and its absence hold for the method and conditions named. Tags and fused reporters may be left off the sequences shown.

B1: FtsZCTD peptide (conserved C-terminal domain of C. glutamicum FtsZ, 10 residues) (peptide)
peptide: DDLDVPSFLQ
notes: C-terminal 10 residues of FtsZ (cg2366), Corynebacterium glutamicum; the printed residues D436, P438 and F440 place the peptide at 433-442; also called FtsZ C-terminal domain peptide; source: synthetic peptide, bought: Genosphere
For B1, the binding entry is “no binding (tested: 1.56 to 400 µM FtsZCTD)”.
